Assay [1] has as its target T1, HA-tagged ODAM (UniProt A1E959).
T1 sequence: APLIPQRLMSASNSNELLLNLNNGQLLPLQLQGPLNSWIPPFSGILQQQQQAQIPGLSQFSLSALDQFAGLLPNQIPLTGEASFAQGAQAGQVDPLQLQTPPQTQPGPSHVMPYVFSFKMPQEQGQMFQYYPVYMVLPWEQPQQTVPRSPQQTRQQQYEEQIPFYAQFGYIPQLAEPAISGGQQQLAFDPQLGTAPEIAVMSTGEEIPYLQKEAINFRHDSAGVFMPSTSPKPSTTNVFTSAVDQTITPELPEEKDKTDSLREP
Briefly: co-IP; lysates of co-transfected ALCs (RIPA buffer); IP with anti-HA, anti-FLAG or anti-ARHGEF5 antibody, protein A/G-agarose, 4 °C; Western blot with anti-ARHGEF5 or anti-HA. On the technique in general: A western blot detects proteins with antibodies after separation by electrophoresis.

Assay [2] deals with T2, odontogenic ameloblast-associated protein (ODAM), endogenous in ALCs (not stated (endogenous in ALCs; the paper does not name the species of the cell line)) (UniProt A1E960).
T2 sequence: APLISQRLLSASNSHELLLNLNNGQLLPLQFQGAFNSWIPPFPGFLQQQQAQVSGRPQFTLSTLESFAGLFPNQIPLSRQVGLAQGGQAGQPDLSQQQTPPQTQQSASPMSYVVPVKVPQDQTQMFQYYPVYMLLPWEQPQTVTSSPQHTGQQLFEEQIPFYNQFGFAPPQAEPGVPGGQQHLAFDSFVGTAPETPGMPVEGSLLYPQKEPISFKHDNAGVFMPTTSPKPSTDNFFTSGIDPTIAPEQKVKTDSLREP
Description: co-IP; endogenous proteins in ALC lysate (RIPA buffer: 50 mM Tris-Cl pH 7.5, 150 mM NaCl, 1% Nonidet P-40, 1 mM EDTA); IP with anti-ODAM antibody, protein A/G-agarose, 4 °C; Western blot with anti-ARHGEF5.

In assay [3] the target is T3, His-ODAM C-terminal protein (UniProt A1E959).
T3 sequence: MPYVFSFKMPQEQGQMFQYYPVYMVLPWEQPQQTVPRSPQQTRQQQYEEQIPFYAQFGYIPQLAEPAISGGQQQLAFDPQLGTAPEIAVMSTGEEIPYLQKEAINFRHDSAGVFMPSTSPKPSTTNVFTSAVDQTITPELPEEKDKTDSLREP
Description: pull-down; lysate of ALCs transfected with the FLAG-ARHGEF5 SH domain (RIPA buffer) incubated 1 h at 30 °C with His-ODAM C-terminal protein; captured with anti-His antibody and protein A/G-agarose at 4 °C; Western blot with anti-FLAG; only the target purified.

These are yes or no findings as the source states them, for the method shown. In cells and extracts the contact can be indirect. Some results given as binding are weak or reduced against the parent protein; the word gives no strength. For part of these data: Where a sequence is shown, tags or fusion partners need not be part of it.

As to “ARHGEF5, transfected construct (from UniProt E9Q7D5 1-1581)”, the binding entry in assay [1] is on record as “binds”.

For the molecule “Rho guanine nucleotide exchange factor 5 (ARHGEF5), endogenous in ALCs (from UniProt E9Q7D5 1-1581)”, the binding entry in assay [2] is “binds”.

B1: FLAG-ARHGEF5 mutant containing only the SH domain (amino acids 1489-1581) (domain or fragment, UniProt E9Q7D5 1489-1581)
chain: DLLECYDSPQVQCLRAYKPRENDELALEKADVVMVTQQSSDGWLEGVRLSDGEQGWFPVQQVEFISNPEVRAQNLKEAHRVKTAKLQLVEQQV
Regarding B1, the binding entry in assay [3] is “binds”.
